In the case of `OO` [hydrogen peroxide], the “fluorescence of OsteoSense 750 bound to caries lesion after application” value (hydrogen peroxide 38% applied with a syringe, FIG. 18) is reported as “eliminated fluorescence”, the “fluorescence indicating presence of the bound probe” value (ten minutes after hydrogen peroxide 38%) is reported as “substantially eliminated” and the “fluorescence of the probe bound to the tooth” value (three minutes after hydrogen peroxide 38%) is reported as “substantially reduced”.
